Sequences of proteins named here, by UniProt entry; tags and fusion partners are left off. A change or cut given only in a name is not applied to a line headed by its entry.
UniProt A0A285VWG3: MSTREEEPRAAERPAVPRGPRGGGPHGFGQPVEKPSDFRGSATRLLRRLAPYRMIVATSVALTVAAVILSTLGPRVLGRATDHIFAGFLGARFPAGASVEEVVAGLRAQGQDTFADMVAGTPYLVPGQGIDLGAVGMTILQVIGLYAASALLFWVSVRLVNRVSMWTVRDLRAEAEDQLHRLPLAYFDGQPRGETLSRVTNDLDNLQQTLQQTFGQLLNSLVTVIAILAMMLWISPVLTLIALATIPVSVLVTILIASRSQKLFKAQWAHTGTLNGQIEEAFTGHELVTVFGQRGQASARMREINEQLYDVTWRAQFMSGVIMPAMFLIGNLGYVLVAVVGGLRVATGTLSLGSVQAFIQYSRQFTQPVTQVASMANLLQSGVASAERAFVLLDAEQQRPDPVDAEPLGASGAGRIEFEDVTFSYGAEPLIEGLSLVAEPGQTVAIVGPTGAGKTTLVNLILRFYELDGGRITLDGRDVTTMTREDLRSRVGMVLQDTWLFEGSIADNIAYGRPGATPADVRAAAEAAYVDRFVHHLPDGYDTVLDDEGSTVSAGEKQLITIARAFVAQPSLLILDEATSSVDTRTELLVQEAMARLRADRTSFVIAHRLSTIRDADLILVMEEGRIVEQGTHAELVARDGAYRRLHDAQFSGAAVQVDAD

In paper PMC11109279, “Heliorhodopsin-mediated light-modulation of ABC transporter” (Nature Communications, 2024):

Target: OmrD (OmrD::his-tag) (Omithinimicrobium cerasi strain USBA17B2)
Test: pull-down; His-tag pull-down: Ni2+-NTA agarose added to solubilized membrane proteins of E. coli co-expressing OmrD::his-tag and OmrE::HA-tag; 25 °C, 2 h; washed five times with buffer SD; western blotting with His- and HA-tag antibodies

binding: binds
Substance: OmrE::HA-tag (from UniProt A0A285VWG3)

Results are given in words; binding and its absence hold for the method and conditions named. Binding seen in cells or lysates may run through a third protein. A result given as binding can be weak or reduced; the word gives no strength.
